## Library screen at single concentrations

Chains of the proteins cited; added tags and fusions are not shown. Residues count along the entry.
UniProt Q4DA54, 1-478: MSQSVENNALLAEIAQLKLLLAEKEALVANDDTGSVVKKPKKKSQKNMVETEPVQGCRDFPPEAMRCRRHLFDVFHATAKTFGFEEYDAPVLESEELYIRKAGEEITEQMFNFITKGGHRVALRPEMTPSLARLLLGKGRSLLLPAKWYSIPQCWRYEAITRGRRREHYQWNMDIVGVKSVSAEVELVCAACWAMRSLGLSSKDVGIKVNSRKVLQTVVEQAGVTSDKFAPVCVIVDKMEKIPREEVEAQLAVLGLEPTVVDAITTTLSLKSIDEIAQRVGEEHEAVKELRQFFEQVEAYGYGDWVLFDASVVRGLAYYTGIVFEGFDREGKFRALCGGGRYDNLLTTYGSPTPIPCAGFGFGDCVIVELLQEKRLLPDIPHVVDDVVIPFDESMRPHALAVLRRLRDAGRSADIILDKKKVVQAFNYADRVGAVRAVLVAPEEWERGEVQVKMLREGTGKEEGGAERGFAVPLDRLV

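Histidine-tRNA ligase, Trypanosoma cruzi CL Brener (UniProt Q4DA54). Enzyme assay of histidyl-tRNA synthetase; the read-out is not stated. Concentration: 30 µM. The record gives no direction; compounds that gave an IC50 in retests scored well above the rest, so higher reads as stronger inhibition. Size under these conditions: about 69,000 compounds, about 31 of them at 50% or above in at least one test.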

Each number is a percent effect as filed.
The controls that fix the scale are not given in the record; negative values are as filed.
The compounds are a random part of those screened.

{"compound": "CCn1cncc1CNc1ccc(-c2nc(CC(C)C)no2)cn1", "Percent Effect": 7.831}
{"compound": "CC(C)C(C)(O)CNC(=O)Nc1ccccn1", "stereo": "stereo unspecified", "Percent Effect": 4.813}
{"compound": "COc1cc(Oc2ncccc2C(F)(F)F)ccc1CN1CCCC1", "Percent Effect": 1.932}
{"compound": "CSCCC(Nc1nc(C)cc(C)n1)C(=O)NCC1CCOCC1", "stereo": "stereo unspecified", "Percent Effect": -1.98}
{"compound": "O=C1CCN(CCCS(=O)(=O)c2ccc(Cl)cc2)CCN1", "Percent Effect": 5.128}
{"compound": "Cc1ccccc1CCC(=O)N1CCc2ncnc(NCCO)c2CC1", "Percent Effect": -2.381}
{"compound": "COc1ccc2c(c1)nc1n2[C@@H](CNCc2cnn(C)c2)COC1", "Percent Effect": 3.96}
{"compound": "Cc1ncsc1-c1nnc(C2CCN(Cc3cccc(F)c3F)CC2)o1", "Percent Effect": -8.791}
{"compound": "COc1ccc(C2=CCN(C(=O)CN(C)Cc3ccco3)CC2)cc1", "Percent Effect": 8.571}
{"compound": "O=C([C@H]1CCS(=O)(=O)[C@@H]2CN(Cc3ccc(F)cc3)C[C@H]12)N1CCCC1", "Percent Effect": 0}
{"compound": "Cc1ccc(CN2CCn3c(CN4CCN(C)CC4)cnc3C2C)s1", "stereo": "stereo unspecified", "Percent Effect": 0}
{"compound": "OC1(CNc2ccc(Br)cn2)CCC1", "Percent Effect": 6.952}
{"compound": "CN(Cc1ncnn1C)C1CCN(c2sccc2C#N)C1=O", "stereo": "stereo unspecified", "Percent Effect": 3.743}
{"compound": "Cc1cc(C)n(CC2CCCCN2C(=O)c2ccc3c(c2)COC3)n1", "stereo": "stereo unspecified", "Percent Effect": 3.955}
{"compound": "COCCN(Cc1ccco1)c1ncc(C#N)cc1Cl", "Percent Effect": -2.083}
{"compound": "CN1CCOC(CNCCOc2ccc(C#N)cc2)C1", "stereo": "stereo unspecified", "Percent Effect": 2.128}
{"compound": "COc1ccc(CNC2CCC(O)CC2)cc1OCCCC#N", "stereo": "stereo unspecified", "Percent Effect": 9.901}
{"compound": "O=C(CCCC1CCCC1)NS(=O)(=O)CC1CC1", "Percent Effect": 2.186}
{"compound": "Cc1nnc2n1CCN(Cc1csc(-c3ccsc3)n1)C2", "Percent Effect": 4.07}
{"compound": "Cn1ccnc1CN1CCOC(C)(C(=O)N2CCOCC2)C1", "stereo": "stereo unspecified", "Percent Effect": 5.556}
{"compound": "CCOC(C)c1nc(CN2CCC(NC(C)C)CC2)cs1", "stereo": "stereo unspecified", "Percent Effect": 5.155}
{"compound": "CCOc1ccc(NC(C)C(=O)NCCc2cccs2)cc1CO", "stereo": "stereo unspecified", "Percent Effect": 8.247}
{"compound": "Cc1ccc(C(=O)N(CC(=O)O)CC(C)C)cc1F", "Percent Effect": 4.95}
{"compound": "CCC(C)NC(=O)c1ccc(NC(=O)CCc2ccncc2)c(C)c1", "stereo": "stereo unspecified", "Percent Effect": 3.704}
{"compound": "COc1ccc(OCCN(C)C(=O)NC(C)c2nncn2C)cc1", "stereo": "stereo unspecified", "Percent Effect": 1.887}
{"compound": "Cc1ccnn1CCC(=O)N1C[C@H]2CC[C@@H]1CN(CC(=O)N(C)C)C2", "Percent Effect": 5.814}
{"compound": "Cc1c(C(=O)N2CCC3(CCCNC3=O)C2)sc2nc[nH]c(=O)c12", "stereo": "stereo unspecified", "Percent Effect": 0}
{"compound": "O=C(NCc1ccco1)[C@H]1COC[C@H]2CN(Cc3ccccn3)C[C@H]21", "Percent Effect": 0.9804}
{"compound": "O=C1CCC2(CCCN(Cc3ccccc3F)C2)N1CC1CC1", "stereo": "stereo unspecified", "Percent Effect": 4.854}

For reference, 3 entries once more:

- O=C(CCCC1CCCC1)NS(=O)(=O)CC1CC1 | 2.186%
- CCC(C)NC(=O)c1ccc(NC(=O)CCc2ccncc2)c(C)c1 (stereo unspecified) | 3.704%
- Cc1ccc(CN2CCn3c(CN4CCN(C)CC4)cnc3C2C)s1 (stereo unspecified) | 0%

The values are deposited in ChEMBL (CHEMBL3988442, “University of Dundee, Small-Polar-MMV Screening Library” (2021)).